The values that follow come from the RepoRT retention time repository (doi:10.1093/pcp/pcn183).

This series can be described thus: RP, Waters ACQUITY UPLC BEH C18, 38 °C, 0.24 mL/min; A: water + 0.1% formic acid, pH 3; B: acetonitrile + 0.1% formic acid, pH 3; gradient (min/%B) 0/0 0.25/0 0.4/9 0.8/17 1.9/100 2.1/100 2.11/0 3/0. As to conditions: stereoisomer not certain.

For `O=C(O)C1=CC(O)C(O)C(O)C1` (single isomer, unassigned; (-)) [(-)Shikimic acid], the LC retention time worked out at 0.25 min.
